Earlier results as cited in US7090865B2, “Composition and method for treating autoimmune hemolytic anemia” (National Jewish Medical and Research Center, priority 2001, dated 2006).
Some of these results come from one statement about several compounds together. At least one structure is not confirmed: it was looked up by name or label, or the drawing left a doubt.

Test system: osteoclasts
Conditions: anti-resorptive potency

SMILES	potency relative to older agents such as etidronate
CCCCCN(C)CCC(O)(P(=O)(O)O)P(=O)(O)O [ibandronate]	10,000–100,000 fold
O=P(O)(O)C(O)(Cn1ccnc1)P(=O)(O)O [zoledronic acid]	10,000–100,000 fold
